In patent publication US6723527B2, “Methods for determining toxicity reversing agents” (Board of Regents, The University of Texas System, priority 2001, dated 2004):

Test system: human peripheral blood lymphocytes
Test: lymphocyte growth inhibition assay ([3H]-thymidine incorporation) in chemically defined medium
Type: cell-based
Settings: at 0.1 μg/ml
Description: The medium is also described in the specification above. Various concentrations of amino acids can be used in the medium to determine the effect on growth or growth inhibition.
Human peripheral blood was collected from a group of patients in the clinic. […] Experiments were conducted in 96 well microtite plates. Triplicate samples were run in all experiments. […] For reversal of toxicity CoQ10 was added at a concentration of 0.5 μg/ml, and the patient's own plasma at a concentration of 0.1%. All chemicals were obtained from Sigma Chemical Corporation. […] Cells were then pulsed with 10 μl [^3H]-thymidine (0.29×10^-6M final concentration; specific activity […]). Twenty-four hours later, cells were harvested using an Inotech Cell Harvester. Radioactive incorporation was measured using a Packard Matrix 96 Beta Counter.

Structure (SMILES): CC(C)c1c(C(=O)Nc2ccccc2)c(-c2ccccc2)c(-c2ccc(F)cc2)n1CC[C@@H](O)C[C@@H](O)CC(=O)O [Lipitor, Atorvastatin]
- toxicity / inhibition of growth or other response of lymphocytes: extremely toxic to most subjects
